Our source for the binding values is article doi:10.1101/2021.02.07.430173.

Amino acid sequences for entries named in this document (tags omitted).
UniProt P97496: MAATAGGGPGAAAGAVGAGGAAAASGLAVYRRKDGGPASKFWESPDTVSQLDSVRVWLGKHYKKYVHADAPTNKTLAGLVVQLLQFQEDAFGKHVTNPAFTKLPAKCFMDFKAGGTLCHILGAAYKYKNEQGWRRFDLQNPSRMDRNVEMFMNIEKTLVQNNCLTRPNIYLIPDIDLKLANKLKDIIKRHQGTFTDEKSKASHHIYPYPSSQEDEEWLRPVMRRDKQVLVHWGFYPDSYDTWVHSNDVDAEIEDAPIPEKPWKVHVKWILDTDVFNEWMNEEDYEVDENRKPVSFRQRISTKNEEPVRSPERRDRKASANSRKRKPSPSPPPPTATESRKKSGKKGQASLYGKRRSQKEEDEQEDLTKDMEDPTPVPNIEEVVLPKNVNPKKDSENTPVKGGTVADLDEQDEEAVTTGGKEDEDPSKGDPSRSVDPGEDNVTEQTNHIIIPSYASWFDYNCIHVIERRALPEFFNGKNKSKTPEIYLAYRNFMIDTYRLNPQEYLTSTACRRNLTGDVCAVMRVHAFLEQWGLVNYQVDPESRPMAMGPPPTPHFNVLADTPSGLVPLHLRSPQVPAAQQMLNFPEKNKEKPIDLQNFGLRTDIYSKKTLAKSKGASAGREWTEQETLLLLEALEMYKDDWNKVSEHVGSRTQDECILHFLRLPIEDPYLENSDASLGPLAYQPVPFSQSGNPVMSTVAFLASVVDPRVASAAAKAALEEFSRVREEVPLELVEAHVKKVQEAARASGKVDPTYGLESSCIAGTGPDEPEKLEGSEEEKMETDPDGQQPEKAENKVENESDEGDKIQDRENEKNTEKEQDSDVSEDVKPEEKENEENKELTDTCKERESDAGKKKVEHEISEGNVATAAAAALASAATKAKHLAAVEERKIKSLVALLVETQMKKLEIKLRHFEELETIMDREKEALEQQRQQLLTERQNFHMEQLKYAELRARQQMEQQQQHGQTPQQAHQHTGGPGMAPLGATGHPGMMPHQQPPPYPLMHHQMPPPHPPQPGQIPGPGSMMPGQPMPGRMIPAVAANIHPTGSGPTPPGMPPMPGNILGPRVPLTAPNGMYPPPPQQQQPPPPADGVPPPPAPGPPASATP
UniProt Q61466: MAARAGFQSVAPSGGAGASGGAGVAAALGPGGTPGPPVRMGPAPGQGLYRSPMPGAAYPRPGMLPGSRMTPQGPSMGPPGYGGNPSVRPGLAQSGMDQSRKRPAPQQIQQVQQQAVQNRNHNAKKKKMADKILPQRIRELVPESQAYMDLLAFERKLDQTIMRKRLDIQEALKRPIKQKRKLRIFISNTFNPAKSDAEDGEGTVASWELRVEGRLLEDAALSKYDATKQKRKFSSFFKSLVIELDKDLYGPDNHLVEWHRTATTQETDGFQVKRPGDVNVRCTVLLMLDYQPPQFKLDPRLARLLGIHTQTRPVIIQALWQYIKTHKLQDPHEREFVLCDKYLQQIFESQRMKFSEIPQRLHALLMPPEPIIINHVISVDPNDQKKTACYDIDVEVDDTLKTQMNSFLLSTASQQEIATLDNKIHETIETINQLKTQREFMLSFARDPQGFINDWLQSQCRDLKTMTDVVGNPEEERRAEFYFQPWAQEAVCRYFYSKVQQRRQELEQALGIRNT

B1: Nono (mouse ESCs) (protein, UniProt Q99K48 1-473)
chain: MQSNKAFNLEKQNHTPRKHHQHHHQQHHQQQQQQQQQQPPPPIPANGQQASSQNEGLTIDLKNFRKPGEKTFTQRSRLFVGNLPPDITEEEMRKLFEKYGKAGEVFIHKDKGFGFIRLETRTLAEIAKVELDNMPLRGKQLRVRFACHSASLTVRNLPQYVSNELLEEAFSVFGQVERAVVIVDDRGRPSGKGIVEFSGKPAARKALDRCSEGSFLLTTFPRPVTVEPMDQLDDEEGLPEKLVIKNQQFHKEREQPPRFAQPGSFEYEYAMRWKALIEMEKQQQDQVDRNIKEAREKLEMEMEAARHEHQVMLMRQDLMRRQEELRRMEELHNQEVQKRKQLELRQEEERRRREEEMRRQQEEMMRRQQEGFKGTFPDAREQEIRMGQMAMGGAMGINNRGAMPPAPVPPGTPAPPGPATMMPDGTLGLTPPTTERFGQAATMEGIGAIGGTPPAFNRPAPGAEFAPNKRRRY
B2: Sfpq (mouse ESCs) (protein, UniProt Q8VIJ6 1-699)
chain: MSRDRFRSRGGGGGGFHRRGGGGGRGGLHDFRSPPPGMGLNQNRGPMGPGPGGPKPPLPPPPPHQQQQQPPPQQPPPQQPPPHQQPPPHQPPHQQPPPPPQESKPVVPQGPGSAPGVSSAPPPAVSAPPANPPTTGAPPGPGPTPTPPPAVPSTAPGPPPPSTPSSGVSTTPPQTGGPPPPPAGGAGPGPKPGPGPGGPKGGKMPGGPKPGGGPGMGAPGGHPKPPHRGGGEPRGGRQHHAPYHQQHHQGPPPGGPGPRTEEKISDSEGFKANLSLLRRPGEKTYTQRCRLFVGNLPADITEDEFKRLFAKYGEPGEVFINKGKGFGFIKLESRALAEIAKAELDDTPMRGRQLRVRFATHAAALSVRNLSPYVSNELLEEAFSQFGPIERAVVIVDDRGRSTGKGIVEFASKPAARKAFERCSEGVFLLTTTPRPVIVEPLEQLDDEDGLPEKLAQKNPMYQKERETPPRFAQHGTFEYEYSQRWKSLDEMEKQQREQVEKNMKDAKDKLESEMEDAYHEHQANLLRQDLMRRQEELRRMEELHSQEMQKRKEMQLRQEEERRRREEEMMIRQREMEEQMRRQREESYSRMGYMDPRERDMRMGGGGTMNMGDPYGSGGQKFPPLGGGGGIGYEANPGVPPATMSGSMMGSDMRTERFGQGGAGPVGGQGPRGMGPGTPAGYGRGREEYEGPNKKPRF
B3: Mybbp1a (mouse ESCs) (protein, UniProt Q7TPV4 1-1344)
chain: MAEMKSPTKAEPATPAEAAQSDRHSLLEHSREFLDFFWDIAKPDQETRLRATEKLLEYLRTRPNDSEMKYALKRLITGLGVGREAARPCYSLALAQLLQSFEDIPLCDILDQIQEKYSLQAMNKAMMRPSLFANLFGVLALFQSGRLVKDKEALMKSVQLLKILSQHPNHLQGQPIKALVDILSEVPESMFQEILPKVLKGNMKVILRSPKYLELFLLAKQRVPTKLESLMGSVDLFSEDNIPSLVNILKVAANSVKKEHKLPNVALDLLRLALKESRFELFWKKVLEEGLLKNPSWTSSYMCFRLLGASLPLLSEEQLQLVMRGDLIRHFGENMVISKPQNLFKIIPEISTYVGTFLEGCQDDPKRQLTMMVAFTTITNQGLPVMPTFWRVTRFLNAEALQSYVAWLRDMFLQPDLNSLVDFSTANQKRAQDASLNVPERAVFRLRKWIIHRLVSLVDHLHLEKDEAVVEQIARFCLFHAFFKTKKATPQIPETKQHFSFPLDDRNRGVFVSAFFSLLQTLSVKFRQTPDLAENGKPWTYRLVQLADMLLNHNRNVTSVTSLTTQQRQAWDQMMSTLKELEARSSETRAIAFQHLLLLVGLHIFKSPAESCDVLGDIQTCIKKSMEQNPRRSRSRAKASQEPVWVEVMVEILLSLLAQPSNLMRQVVRSVFGHICPHLTPRCLQLILAVLSPVTNEDEDDNVVVTDDADEKQLQHGEDEDSDNEDNKNSESDMDSEDGEESEEEDRDKDVDPGFRQQLMEVLKAGNALGGVDNEEEEELGDEAMMALDQNLASLFKEQKMRIQARNEEKNKLQKEKKLRRDFQIRALDLIEVLVTKQPEHPLILELLEPLLNVIQHSMRSKGSTKQEQDLLHKTARIFMHHLCRARRYCHEVGPCAEALHAQVERLVQQAGSQADASVALYYFNASLYLLRVLKGNTNKRHQDGHKLHGADTEDSEDQAANCLDLDFVTRVYSASLESLLTKRNSSLTVPMFLSLFSRYPVICKNLLPVLAQHVAGPSRPRHQAQACLMLQKTLSARELRVCFEDPEWEQLITQLLGKATQTLQTLGEAQSKGEHQKELSILELLNTLLRTVNHEKLSVDLTAPLGVLQSKQQKLQQSLQQGNHSSGSNRLYDLYWQAMRMLGVQRPKSEKKNAKDIPSDTQSPVSTKRKKKGFLPETKKRKKLKSEGTTPEKNAASQQDAVTEGAMPAATGKDQPPSTGKKKRKRVKASTPSQVNGITGAKSPAPSNPTLSPSTPAKTPKLQKKKEKLSQVNGATPVSPIEPESKKHHQEALSTKEVIRKSPHPQSALPKKRARLSLVSRSPSLLQSGVKKRRVASRRVQTP

Results are given in words; binding and its absence hold for the method and conditions named. In cells and extracts the contact can be indirect. These calls come from enrichment with a bait or labelling near it, and not all partners need be listed.

The assay deals with T1, POGZ (endogenous, mouse ESCs) (mouse (endogenous in mouse ESCs)) (UniProt Q8BZH4).
T1 sequence: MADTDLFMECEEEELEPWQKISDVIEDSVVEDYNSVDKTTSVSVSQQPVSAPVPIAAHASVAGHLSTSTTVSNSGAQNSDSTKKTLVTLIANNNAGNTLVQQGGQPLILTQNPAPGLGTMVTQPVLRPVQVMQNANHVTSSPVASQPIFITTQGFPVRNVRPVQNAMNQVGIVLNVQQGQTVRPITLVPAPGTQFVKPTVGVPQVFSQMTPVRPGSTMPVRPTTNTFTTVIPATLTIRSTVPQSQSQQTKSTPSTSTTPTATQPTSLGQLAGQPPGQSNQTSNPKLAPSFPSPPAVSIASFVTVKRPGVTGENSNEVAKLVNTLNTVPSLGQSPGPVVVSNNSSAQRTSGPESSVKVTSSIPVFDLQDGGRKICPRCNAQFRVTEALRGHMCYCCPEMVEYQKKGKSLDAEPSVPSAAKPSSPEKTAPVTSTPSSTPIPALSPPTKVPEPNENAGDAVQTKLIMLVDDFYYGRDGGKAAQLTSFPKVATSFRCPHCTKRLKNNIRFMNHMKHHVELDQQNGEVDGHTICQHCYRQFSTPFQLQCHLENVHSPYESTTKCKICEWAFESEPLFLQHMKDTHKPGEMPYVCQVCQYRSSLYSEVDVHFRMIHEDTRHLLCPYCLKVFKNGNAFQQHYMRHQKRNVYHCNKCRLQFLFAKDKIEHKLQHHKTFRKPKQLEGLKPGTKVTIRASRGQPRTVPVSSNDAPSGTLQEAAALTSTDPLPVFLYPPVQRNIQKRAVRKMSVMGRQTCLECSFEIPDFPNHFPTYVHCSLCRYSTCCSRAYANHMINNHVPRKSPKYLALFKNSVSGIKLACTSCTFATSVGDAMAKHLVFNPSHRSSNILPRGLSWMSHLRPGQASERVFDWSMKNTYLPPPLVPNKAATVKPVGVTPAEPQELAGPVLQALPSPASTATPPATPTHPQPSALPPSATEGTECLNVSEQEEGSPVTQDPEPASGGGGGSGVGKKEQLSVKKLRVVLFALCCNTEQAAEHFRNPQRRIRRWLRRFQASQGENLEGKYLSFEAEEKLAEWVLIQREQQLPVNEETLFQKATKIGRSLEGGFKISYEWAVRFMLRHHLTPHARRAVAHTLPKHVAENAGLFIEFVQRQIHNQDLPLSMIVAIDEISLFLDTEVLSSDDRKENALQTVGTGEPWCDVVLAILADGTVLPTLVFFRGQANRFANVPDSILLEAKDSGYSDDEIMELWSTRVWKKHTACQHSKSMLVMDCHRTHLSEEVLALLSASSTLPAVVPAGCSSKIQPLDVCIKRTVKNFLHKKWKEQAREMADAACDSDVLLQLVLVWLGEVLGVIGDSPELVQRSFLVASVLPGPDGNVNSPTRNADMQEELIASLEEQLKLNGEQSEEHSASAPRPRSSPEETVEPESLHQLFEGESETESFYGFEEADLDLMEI
The assay is described as follows: affinity purification with mass spectrometry.
Turning to “SMARCC1/BAF155 (endogenous, mouse ESCs) (from UniProt P97496 1-1104)”, the binding entry is on record as “binds”.
Consider “SMARCD1/BAF60a (mouse ESCs) (from UniProt Q61466 1-515)”, for which the binding entry is recorded as “binds”.
On to B1, for which the binding entry is given as “binds”.
As to B2, the binding entry was “binds”.
For the molecule B3, the binding entry is given as “binds”.
